This passage reports binding results from PMC11088074.

Chains of the proteins cited; added tags and fusions are not shown. Residues count along the entry.
UniProt P17246, residues 279-390: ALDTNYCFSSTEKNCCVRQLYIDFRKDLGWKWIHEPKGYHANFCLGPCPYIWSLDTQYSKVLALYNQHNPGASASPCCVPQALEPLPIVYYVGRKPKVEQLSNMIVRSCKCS

The assay has as its target Transforming growth factor-β1 (rat (endogenous in myocardial tissue)) (UniProt P17246). The assay can be described thus: co-IP; myocardial tissue homogenate of rats (Sham and MI groups) in lysis buffer (50 mM Tris-HCl, 5 mM EDTA, 150 mM NaCl, 0.5% Nonidet-P40, 10% glycerol, pH 7.4); precipitated with TGF-β1 antibody or IgG control overnight at 4 °C, Protein G magnetic beads, 5 washes in TBST, Western blot. (In general: A western blot detects proteins with antibodies after separation by electrophoresis.)

These are yes or no findings as the source states them, for the method shown. Binding seen in cells or lysates may run through a third protein. Some binding calls cover weakened binding; strength is not graded here.

B1: TGF-β receptor II (receptor, UniProt P38438 24-567)
chain: IPPHVPKSVNSDLMAGDNSGAVKLPQLCKFCDVTLSTCDNQKSCMSNCSVTSICEKPQEVCVAVWRKNDKNITLETVCHDPKFTYHGFTLEDATSPTCVMKEKKRAGETFFMCSCNTEECNDYIIFNEEYTTSSPDLLLVIIQVTGVSLLPPLGIAIAVIAIFYCYRVHRQQKLSPSWESSKPRKLMDFSDNCAIILEDDRSDISSTCANNINHNTELLPIELDTLVGKGRFAEVYKAKLKQNTSEQFETVAVKIFPYEEYSSWKTEKDIFSDINLKHENILQFLTAEERKTEMGKQYWLITAFHAKGNLQEYLTRHVISWEDLRKLGSSLARGIAHLHSDHTPCGRPKMPIVHRDLKSSNILVKNDLTCCLCDFGLSLRLDPTLSVDDLANSGQVGTARYMAPEVLESRMNLENMESFKQTDVYSMALVLWEMTSRCNAVGEVKDYEPPFGSKVREHPCVESMKDNVLRDRGRPEIPSFWLNHQGIQIVCETLTECWDHDPEARLTAQCVAERFSELEHPDRLSGRSCSQEKIPEDGSLNTTK
Regarding B1, the binding result is given as “binds”.
